For three molecules, binding results are on record in PMC5059453.

Protein sequences, listed by entry. Tags and fused reporters are not part of them. Lines headed by an entry give the natural chain unless they say otherwise; changes in a name come on top.
UniProt Q01939: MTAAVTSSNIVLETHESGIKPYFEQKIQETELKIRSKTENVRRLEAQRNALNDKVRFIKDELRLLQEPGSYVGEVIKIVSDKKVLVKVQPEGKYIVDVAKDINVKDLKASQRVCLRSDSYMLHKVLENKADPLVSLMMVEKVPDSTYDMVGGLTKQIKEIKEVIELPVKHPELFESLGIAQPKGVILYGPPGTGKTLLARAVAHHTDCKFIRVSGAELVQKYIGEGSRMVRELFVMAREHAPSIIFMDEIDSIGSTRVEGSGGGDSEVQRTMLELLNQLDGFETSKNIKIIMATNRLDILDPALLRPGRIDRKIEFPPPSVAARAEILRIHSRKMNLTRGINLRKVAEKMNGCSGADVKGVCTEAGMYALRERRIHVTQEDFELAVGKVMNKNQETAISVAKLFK
UniProt P48510: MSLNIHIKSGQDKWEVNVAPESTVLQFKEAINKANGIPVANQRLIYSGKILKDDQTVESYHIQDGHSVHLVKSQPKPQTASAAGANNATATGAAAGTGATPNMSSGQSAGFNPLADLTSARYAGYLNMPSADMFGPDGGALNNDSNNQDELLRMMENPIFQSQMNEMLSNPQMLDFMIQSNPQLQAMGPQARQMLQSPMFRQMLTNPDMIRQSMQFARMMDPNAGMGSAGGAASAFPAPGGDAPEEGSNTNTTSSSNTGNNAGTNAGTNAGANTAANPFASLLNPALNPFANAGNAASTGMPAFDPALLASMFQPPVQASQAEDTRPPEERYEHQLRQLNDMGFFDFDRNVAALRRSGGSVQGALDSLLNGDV

Assay [1] addresses Tap-proteinA-Rpt6 (bait of the affinity-purified proteasomes) (S. cerevisiae) (UniProt Q01939). As to the kind of experiment: pull-down; TAP-Rpt6 proteasomes affinity-purified from yeast lysate on calmodulin resin; 50 mM Tris 7.4, 200 mM NaCl, 10 mM MgCl2, 2 mM CaCl2, 10% glycerol, 1 mM ATP, 1 mM DTT; bound fraction blotted with anti-Rpn10.
Assay [2] deals with His6-Dsk2-UbL domain (UniProt P48510). As to the kind of experiment: pull-down; His6-tagged proteins immobilized on Ni2+ beads pull down purified Rpn10 or Ub-Rpn10 (42 μl of 2.8 mg ml^−1); 25 mM HEPES, 75 mM NaCl, 0.25% Triton X-100, 1 mM DTT, pH 7.4; 3 h at 4 °C; western blot with α-Rpn10; both purified. A general note: Immunoblotting shows a protein as a band on a membrane.

These are yes or no findings as the source states them, for the method shown. Binding can be weak; no strength is given. For part of these data: Binding seen in cells or lysates may run through a third protein.

B1: Rpn10-WT expressed in yeast (protein, UniProt P38886 1-268)
chain: MVLEATVLVIDNSEYSRNGDFPRTRFEAQIDSVEFIFQAKRNSNPENTVGLISGAGANPRVLSTFTAEFGKILAGLHDTQIEGKLHMATALQIAQLTLKHRQNKVQHQRIVAFVCSPISDSRDELIRLAKTLKKNNVAVDIINFGEIEQNTELLDEFIAAVNNPQEETSHLLTVTPGPRLLYENIASSPIILEEGSSGMGAFGGSGGDSDANGTFMDFGVDPSMDPELAMALRLSMEEEQQRQERLRQQQQQQDQPEQSEQPEQHQDK
Turning to B1, in assay [1], the binding entry is on record as “binds”.

B2: apo-Rpn10 (protein, UniProt P38886 1-268)
chain: MVLEATVLVIDNSEYSRNGDFPRTRFEAQIDSVEFIFQAKRNSNPENTVGLISGAGANPRVLSTFTAEFGKILAGLHDTQIEGKLHMATALQIAQLTLKHRQNKVQHQRIVAFVCSPISDSRDELIRLAKTLKKNNVAVDIINFGEIEQNTELLDEFIAAVNNPQEETSHLLTVTPGPRLLYENIASSPIILEEGSSGMGAFGGSGGDSDANGTFMDFGVDPSMDPELAMALRLSMEEEQQRQERLRQQQQQQDQPEQSEQPEQHQDK
For the molecule B2, in assay [2], the binding entry is “binds”.

B3: Rpn10-K84R expressed in yeast (protein, UniProt P38886 1-268)
chain: MVLEATVLVIDNSEYSRNGDFPRTRFEAQIDSVEFIFQAKRNSNPENTVGLISGAGANPRVLSTFTAEFGKILAGLHDTQIEGRLHMATALQIAQLTLKHRQNKVQHQRIVAFVCSPISDSRDELIRLAKTLKKNNVAVDIINFGEIEQNTELLDEFIAAVNNPQEETSHLLTVTPGPRLLYENIASSPIILEEGSSGMGAFGGSGGDSDANGTFMDFGVDPSMDPELAMALRLSMEEEQQRQERLRQQQQQQDQPEQSEQPEQHQDK
With B3, in assay [1], the binding entry is reported as “binds”.
